Results reported in patent publication US20220160652A1, “USE OF VITAMIN K IN COMBINATION WITH ANTICOAGULANTS” (KAYDENCE PHARMA AS, priority 2019, published 2022).
At least one compound was matched to its structure with a doubt left.

How the values were obtained:
Sprague-Dawley rats = assay: T-TAS thrombus formation in whole blood of treated Sprague-Dawley rats; assay type: in vivo, rat
Protocol: (§1) This experiment was conducted in order to evaluate the effects of vitamin K2 (MK-7) on the anticoagulant activity of the new oral anticoagulants (NOAC) rivaroxaban and dabigatran using the T-TAS Total Thrombus-formation Analysis System. The T-TAS Total Thrombus-formation Analysis System is a microchip-based flow chamber system capable of evaluating whole-blood thrombogenicity. It is a useful tool in monitoring the efficacy of anticoagulants on thrombus formation and predicting the risk of bleeding complications. […] Four days before the start of the treatment, the first part of animals' body weight and food intake was measured in selected representative three cages (rats n=9) to calculate the appropriate amount of tested compounds required for addition to the diet to obtain the dosing indicated in Table 1. […] The body mass of the rats was measured at the beginning and at the end of treatment. At the beginning and at the end of treatment, the food intake per day was measured in representative group of animals to monitor the daily dosing of tested compounds (per kg of body mass). The thrombus formation in vitro was measured in whole blood using a microchip-based flow chamber system according to manufacturers' protocol (Total Thrombus-formation Analyser System, T-TAS; Fujimori Kogyo Co., Ltd., Tokyo, Japan). […]

[1] = system: transgenic Ren-2 rats [TGR(mREN-2)27]; assay: T-TAS thrombus formation in whole blood of treated TGR (Ren-2) rats; assay type: in vivo, rat
Protocol: as §1

[H]/N=C(/N)c1ccc(NCc2nc3cc(C(=O)N(CCC(=O)O)c4ccccn4)ccc3n2C)cc1 [Dabigatran, dabigatran, reference compound]
thrombus formation (Sprague-Dawley rats): inhibited thrombus formation | thrombus formation [1]: also inhibited thrombus formation
